{"source": "patent US20040091468", "about": "“Novel transcriptional mediators of blood vessel development and endothelial differentiation” (published 2004)", "key": {"cELF-1 (Gallus gallus)": {"system": "T1, cELF-1 (Gallus gallus)", "T1 sequence (limits assumed)": "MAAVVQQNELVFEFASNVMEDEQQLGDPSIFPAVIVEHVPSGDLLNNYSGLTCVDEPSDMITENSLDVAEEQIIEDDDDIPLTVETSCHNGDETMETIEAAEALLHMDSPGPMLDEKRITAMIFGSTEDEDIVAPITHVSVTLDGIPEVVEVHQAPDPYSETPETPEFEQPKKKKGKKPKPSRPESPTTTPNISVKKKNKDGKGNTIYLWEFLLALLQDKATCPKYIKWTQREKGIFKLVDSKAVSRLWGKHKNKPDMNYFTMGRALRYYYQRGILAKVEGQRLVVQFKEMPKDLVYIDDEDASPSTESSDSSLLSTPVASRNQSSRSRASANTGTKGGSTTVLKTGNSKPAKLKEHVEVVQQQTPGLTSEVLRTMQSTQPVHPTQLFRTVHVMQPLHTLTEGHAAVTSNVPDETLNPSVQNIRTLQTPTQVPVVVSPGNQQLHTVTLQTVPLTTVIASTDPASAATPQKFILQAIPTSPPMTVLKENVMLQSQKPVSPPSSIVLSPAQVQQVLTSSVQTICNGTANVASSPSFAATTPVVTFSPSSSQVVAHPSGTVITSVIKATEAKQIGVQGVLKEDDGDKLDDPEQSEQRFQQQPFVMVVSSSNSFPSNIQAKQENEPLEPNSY", "assay": "competition with a labelled probe", "settings": "5 or 50 ng cold competitor vs Tie1 P2 probe; competes only weakly; protein translated in vitro; variant of Tie1 P2"}, "ELF-1 (Homo sapiens)": {"target": "T2, ELF-1 (Homo sapiens) (UniProt P32519)", "T2 sequence (limits assumed)": "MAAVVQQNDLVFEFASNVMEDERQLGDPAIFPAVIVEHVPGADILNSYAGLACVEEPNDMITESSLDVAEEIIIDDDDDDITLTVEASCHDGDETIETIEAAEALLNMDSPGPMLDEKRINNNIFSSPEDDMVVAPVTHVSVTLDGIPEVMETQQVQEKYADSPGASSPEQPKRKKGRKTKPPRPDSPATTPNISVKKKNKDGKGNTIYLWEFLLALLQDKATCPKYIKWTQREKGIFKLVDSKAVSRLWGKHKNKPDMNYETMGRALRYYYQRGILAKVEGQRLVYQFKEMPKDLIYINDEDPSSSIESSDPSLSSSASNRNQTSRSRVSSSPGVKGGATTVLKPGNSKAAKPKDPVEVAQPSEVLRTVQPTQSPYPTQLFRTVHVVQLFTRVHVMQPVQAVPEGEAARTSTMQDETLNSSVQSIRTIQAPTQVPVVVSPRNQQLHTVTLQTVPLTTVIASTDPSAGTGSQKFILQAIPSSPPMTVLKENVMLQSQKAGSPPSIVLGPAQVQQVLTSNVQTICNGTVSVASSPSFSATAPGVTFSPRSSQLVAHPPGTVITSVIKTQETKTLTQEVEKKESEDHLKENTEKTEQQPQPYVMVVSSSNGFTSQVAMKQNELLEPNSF", "assay": "EMSA", "settings": "anti-ELF-1 antibody interferes with complex; also blocked by ELF-1 peptide A at 0.5-1.0 uM (p236, FIG. 12); protein translated in vitro; label: 32P"}, "[1]": {"system": "T3, cELF-1 (endogenous, CAM extract) (Gallus gallus)", "T3 sequence (limits assumed)": "T1 sequence (limits assumed)", "assay": "EMSA", "settings": "day 10 chicken CAM cell extract; supershifted by anti-ELF-1 antibody; protein in an extract; label: 32P"}}, "note": "For part of these data: Weaker means in comparison with the reference protein, sequence or condition of that experiment. Protein sequences can lack the tags named with them. For part of these data: Where cells or extracts were used, other partners may take part. For part of these data: For at least one entry, the source does not settle the construct or the ends of the probe.", "data": [{"sequence": "CCATCATTTAATCTTCCTCCCCAG (double strand) [Tie1 P2 Mut1]", "values": [{"measurement": "binding result", "setting": "cELF-1 (Gallus gallus)", "value": "binds more weakly"}]}, {"sequence": "TGCAAAGGAAACAGGAAAAAGGAACTTAAC (double strand) [Tie2 promoter Ets oligonucleotide]", "values": [{"measurement": "binding result", "setting": "ELF-1 (Homo sapiens)", "value": "binds"}, {"measurement": "binding result", "setting": "[1]", "value": "binds"}]}]}
